Measured values from PMC5177899.
No constants are given. Whether binding was seen depends on the method and setting. In cells and extracts the contact can be indirect. Binding calls can cover weak binding; strength is not graded here.

Protein sequences, listed by entry. Tags and fused reporters are not part of them. Lines headed by an entry give the natural chain unless they say otherwise; changes in a name come on top.
UniProt O60500: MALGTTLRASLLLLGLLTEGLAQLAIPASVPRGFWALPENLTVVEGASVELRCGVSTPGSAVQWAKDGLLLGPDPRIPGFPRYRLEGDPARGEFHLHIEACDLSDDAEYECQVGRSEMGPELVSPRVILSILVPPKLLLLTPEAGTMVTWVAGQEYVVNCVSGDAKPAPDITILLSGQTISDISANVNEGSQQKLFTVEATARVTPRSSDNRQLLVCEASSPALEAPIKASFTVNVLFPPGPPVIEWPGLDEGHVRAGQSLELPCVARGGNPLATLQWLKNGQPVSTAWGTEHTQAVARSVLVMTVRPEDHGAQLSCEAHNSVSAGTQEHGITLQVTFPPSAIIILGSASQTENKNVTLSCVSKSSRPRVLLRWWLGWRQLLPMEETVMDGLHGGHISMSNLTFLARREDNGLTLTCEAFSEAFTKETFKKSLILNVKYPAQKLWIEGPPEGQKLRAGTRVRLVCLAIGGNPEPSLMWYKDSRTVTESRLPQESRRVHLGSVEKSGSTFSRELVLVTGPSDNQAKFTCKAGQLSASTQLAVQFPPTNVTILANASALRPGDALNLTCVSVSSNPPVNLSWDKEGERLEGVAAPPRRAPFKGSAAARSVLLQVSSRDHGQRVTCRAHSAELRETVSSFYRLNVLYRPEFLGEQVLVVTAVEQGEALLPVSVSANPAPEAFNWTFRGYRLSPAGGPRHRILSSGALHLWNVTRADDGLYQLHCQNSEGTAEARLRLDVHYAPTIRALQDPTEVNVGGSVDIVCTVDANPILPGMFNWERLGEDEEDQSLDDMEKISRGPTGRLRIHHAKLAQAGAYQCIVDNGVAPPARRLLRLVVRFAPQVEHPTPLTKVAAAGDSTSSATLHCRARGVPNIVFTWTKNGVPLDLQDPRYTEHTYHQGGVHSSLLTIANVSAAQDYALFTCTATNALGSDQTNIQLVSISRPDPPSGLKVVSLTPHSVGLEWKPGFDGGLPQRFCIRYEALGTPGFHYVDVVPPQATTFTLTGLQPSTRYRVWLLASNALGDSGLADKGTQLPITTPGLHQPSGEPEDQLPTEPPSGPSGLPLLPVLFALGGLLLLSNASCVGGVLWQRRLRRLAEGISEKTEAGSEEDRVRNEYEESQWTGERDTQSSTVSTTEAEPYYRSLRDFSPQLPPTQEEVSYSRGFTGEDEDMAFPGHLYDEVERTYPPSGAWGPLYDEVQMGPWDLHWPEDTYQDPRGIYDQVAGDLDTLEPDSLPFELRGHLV
UniProt P29067: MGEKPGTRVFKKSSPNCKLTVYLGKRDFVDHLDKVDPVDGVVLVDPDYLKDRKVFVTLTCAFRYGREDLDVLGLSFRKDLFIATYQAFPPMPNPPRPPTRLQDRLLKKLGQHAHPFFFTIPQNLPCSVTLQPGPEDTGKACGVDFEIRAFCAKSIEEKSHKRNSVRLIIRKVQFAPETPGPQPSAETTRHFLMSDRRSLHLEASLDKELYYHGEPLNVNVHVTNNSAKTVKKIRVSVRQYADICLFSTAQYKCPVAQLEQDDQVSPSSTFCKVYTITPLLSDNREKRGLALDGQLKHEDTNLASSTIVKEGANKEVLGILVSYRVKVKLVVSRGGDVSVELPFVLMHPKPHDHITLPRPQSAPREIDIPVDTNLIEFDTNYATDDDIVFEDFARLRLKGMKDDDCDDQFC
UniProt O43639: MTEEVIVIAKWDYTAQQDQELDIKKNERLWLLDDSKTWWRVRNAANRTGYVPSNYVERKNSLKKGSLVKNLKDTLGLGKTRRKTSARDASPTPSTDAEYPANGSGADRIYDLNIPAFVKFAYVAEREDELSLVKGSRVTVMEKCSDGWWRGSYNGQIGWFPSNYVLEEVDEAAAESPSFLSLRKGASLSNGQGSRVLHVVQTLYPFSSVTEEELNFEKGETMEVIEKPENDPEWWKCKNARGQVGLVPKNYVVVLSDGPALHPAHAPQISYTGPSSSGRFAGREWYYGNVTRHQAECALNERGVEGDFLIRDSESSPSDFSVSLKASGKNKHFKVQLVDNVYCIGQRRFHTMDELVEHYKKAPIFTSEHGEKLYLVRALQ

Legend:
[1] = target: Y1217A nephrin mutant (C-terminal cytoplasmic domain fusion protein) (human) (UniProt O60500); test: co-IP; HEK293T transiently transfected (Ig.nephrin fusion, partner, AT1 receptor), with or without Ang II (1 μM, up to 60 min) and inhibitors (candesartan, PP2, PTX, Ly294002, U73122) or GNAQ siRNA; 1% Triton X-100 lysate, protein G sepharose 1 h at 4 °C; Western blot
[2] = target: Y1217D nephrin mutant (C-terminal cytoplasmic domain fusion protein) (human) (UniProt O60500); test: as above

Substance	binding [1]	binding [2]
FLAG-tagged β-arrestin2 (from UniProt P29067 1-410)	binds	binds
Nck2 (from UniProt O43639 1-380)	binds	binds
